Laboratory results: publication PMC5633884
No constants are given. Whether binding was seen depends on the method and setting. Binding seen in cells or lysates may run through a third protein. Some results given as binding are weak or reduced against the parent protein; the word gives no strength.

Protein sequences, listed by entry. Tags and fused reporters are not part of them.
UniProt Q8IX03: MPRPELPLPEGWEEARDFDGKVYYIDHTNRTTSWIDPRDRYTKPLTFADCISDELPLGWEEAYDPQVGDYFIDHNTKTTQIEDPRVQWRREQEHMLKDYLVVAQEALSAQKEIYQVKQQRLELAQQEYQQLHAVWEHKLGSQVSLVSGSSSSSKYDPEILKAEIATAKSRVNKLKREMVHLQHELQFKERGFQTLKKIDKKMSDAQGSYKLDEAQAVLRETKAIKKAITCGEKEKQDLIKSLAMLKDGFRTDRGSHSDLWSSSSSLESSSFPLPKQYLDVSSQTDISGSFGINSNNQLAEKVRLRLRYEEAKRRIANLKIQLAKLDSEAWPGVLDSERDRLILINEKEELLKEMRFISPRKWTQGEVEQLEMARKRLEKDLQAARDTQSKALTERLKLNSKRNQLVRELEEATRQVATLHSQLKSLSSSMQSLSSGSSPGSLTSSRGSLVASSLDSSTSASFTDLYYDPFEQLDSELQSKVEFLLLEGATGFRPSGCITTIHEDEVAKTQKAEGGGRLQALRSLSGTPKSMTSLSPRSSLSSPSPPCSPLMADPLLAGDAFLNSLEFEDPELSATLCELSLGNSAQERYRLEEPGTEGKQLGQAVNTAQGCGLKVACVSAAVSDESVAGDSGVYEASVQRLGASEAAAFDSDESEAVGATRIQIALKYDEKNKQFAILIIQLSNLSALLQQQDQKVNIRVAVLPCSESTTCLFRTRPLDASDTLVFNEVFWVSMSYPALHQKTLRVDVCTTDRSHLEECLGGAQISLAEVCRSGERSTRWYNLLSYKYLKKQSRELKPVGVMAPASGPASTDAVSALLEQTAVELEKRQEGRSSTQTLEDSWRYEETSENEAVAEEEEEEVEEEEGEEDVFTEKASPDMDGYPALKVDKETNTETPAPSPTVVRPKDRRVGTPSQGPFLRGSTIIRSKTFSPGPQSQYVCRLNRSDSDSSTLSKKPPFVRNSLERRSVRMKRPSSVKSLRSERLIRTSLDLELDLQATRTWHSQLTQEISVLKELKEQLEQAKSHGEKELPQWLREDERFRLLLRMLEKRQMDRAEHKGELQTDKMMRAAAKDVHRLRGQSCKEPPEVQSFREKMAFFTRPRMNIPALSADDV
UniProt Q8TEW0: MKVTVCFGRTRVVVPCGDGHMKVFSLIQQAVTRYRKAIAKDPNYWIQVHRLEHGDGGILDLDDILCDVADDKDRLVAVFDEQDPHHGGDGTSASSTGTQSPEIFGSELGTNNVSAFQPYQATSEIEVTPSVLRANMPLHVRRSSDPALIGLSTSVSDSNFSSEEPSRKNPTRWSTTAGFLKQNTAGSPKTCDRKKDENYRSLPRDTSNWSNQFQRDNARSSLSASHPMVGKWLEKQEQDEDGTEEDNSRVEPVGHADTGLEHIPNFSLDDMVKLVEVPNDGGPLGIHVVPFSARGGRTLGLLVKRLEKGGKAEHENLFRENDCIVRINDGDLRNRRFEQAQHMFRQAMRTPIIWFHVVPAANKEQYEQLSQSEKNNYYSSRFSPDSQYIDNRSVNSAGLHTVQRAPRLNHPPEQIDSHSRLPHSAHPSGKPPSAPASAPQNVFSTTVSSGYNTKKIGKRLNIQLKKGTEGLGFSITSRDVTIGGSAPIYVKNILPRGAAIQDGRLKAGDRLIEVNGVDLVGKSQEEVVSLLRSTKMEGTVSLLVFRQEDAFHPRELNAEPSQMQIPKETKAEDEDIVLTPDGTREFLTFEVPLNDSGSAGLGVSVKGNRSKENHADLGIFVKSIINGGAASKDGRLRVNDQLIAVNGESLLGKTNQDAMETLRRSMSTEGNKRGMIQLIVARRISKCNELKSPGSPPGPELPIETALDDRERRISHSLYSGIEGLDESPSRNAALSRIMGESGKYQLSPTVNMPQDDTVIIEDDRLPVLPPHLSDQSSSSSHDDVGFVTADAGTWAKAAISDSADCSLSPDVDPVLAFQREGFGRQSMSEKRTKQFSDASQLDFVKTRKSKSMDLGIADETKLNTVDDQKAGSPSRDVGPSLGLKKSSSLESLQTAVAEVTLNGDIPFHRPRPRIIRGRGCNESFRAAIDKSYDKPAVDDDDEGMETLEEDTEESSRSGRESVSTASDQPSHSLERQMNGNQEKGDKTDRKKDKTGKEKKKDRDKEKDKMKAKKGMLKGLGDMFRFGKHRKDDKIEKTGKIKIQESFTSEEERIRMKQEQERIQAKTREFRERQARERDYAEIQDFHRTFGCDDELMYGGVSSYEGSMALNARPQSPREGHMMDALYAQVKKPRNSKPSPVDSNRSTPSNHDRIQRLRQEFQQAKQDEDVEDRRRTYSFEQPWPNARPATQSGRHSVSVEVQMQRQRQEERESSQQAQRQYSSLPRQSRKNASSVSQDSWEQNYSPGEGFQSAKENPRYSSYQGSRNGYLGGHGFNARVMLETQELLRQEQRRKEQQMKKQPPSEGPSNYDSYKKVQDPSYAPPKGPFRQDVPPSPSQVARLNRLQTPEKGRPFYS
UniProt P35240: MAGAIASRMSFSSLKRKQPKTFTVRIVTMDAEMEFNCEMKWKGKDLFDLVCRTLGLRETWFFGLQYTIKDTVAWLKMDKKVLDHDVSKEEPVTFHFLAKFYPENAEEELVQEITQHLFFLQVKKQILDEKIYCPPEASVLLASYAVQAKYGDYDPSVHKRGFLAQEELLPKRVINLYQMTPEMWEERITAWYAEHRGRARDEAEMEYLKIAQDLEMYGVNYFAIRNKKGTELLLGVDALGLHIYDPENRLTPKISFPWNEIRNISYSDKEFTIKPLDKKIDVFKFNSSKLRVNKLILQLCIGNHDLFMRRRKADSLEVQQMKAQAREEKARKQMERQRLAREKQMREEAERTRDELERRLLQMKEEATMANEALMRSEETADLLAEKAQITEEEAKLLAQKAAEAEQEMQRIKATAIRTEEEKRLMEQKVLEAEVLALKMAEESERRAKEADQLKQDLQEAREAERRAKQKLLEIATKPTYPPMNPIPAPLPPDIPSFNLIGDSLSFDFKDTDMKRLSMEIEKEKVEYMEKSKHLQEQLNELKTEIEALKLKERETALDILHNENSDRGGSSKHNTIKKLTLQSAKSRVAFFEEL

Assays:
[1] = molecular target: KIBRA (human (endogenous in PNT1B, PC3 and DU145)) (UniProt Q8IX03); experiment: co-IP; endogenous proteins; PNT1B, PC3 and DU145 cells lysed with RIPA; 100 ug total protein with 5 ug specific antibody and 40 ul protein G-sepharose beads on ice overnight; washed three times with chilled PBS; western blot
[2] = molecular target: KIBRA (human (endogenous in PNT1B, PC3 and DU145)) (UniProt Q8IX03); experiment: co-IP; membranous and cytoplasmic protein extracts taken apart; PC3-con, PC3-shPar3 (stable Par3 knockdown) and PC3-Par3OE (Par3 overexpression) cells; western blot

Substance | binding [1] | binding [2]
Par3 (from UniProt Q8TEW0 1-1356) | binds | 
Merlin (from UniProt P35240 1-595) | binds | binds
